Literature values as cited in patent US20220000966A1, “COMPOSITION AND METHOD FOR TREATING THE LUNGS” (priority 2018, published 2022).
At least one compound was matched to its structure with a doubt left.

System: alveolar macrophages
Details: COPD patients compared to healthy smokers

## C[C@@H]1C[C@H]2[C@@H]3CCC4=CC(=O)C=C[C@]4(C)[C@@]3(F)[C@@H](O)C[C@]2(C)[C@@]1(O)C(=O)CO [dexamethasone]
  basal or stimulated release of IL-8 by alveolar macrophages: does not inhibit
